The target in the series is UP1 (shortened hnRNP A1), GST fusion (UniProt P09651). As to the kind of experiment: EMSA. Particulars: purified recombinant protein, protein details: GST.

By UniProt entry, the sequences of proteins in these tests, tags left out. Residues count along the entry.
UniProt P09651, 1-196: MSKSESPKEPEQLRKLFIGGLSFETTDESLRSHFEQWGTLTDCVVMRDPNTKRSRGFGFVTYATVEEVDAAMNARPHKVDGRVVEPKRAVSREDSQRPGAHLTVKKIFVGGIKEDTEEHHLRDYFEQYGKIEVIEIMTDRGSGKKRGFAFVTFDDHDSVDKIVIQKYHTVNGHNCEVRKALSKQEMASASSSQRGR

For at least one entry, the source does not settle the construct or the ends of the probe. No signal at the amounts used counts as a negative.

On to “GATCACTTGTGTCAACUACCACCGCCAAAGCCGCCU [C5-M4CT]”, for which the binding result was “no binding”.

As for “TTTTTGATAGGGAAATUACCACCGCCAAAGCCGCCU [C5-M4A1]”, the binding result (5' DNA tail, RNA complementary part (2'-OMe not stated for this oligo), second best after C5-M4A1W) is “binds”.
